Among the data in PMC3411106, “Structural analysis of the human SYCE2–TEX12 complex provides molecular insights into synaptonemal complex assembly” (Open Biology, 2012) are binding values, retold here.

The assay addresses T1, MBP–SYCE2_(57–88) (human, UniProt Q6PIF2 57-88).
T1 construct: human SYCE2, residues 57–88 (α1 region); Monomer by SEC–MALS; also called α1 region of SYCE2; source: E. coli Rosetta 2 (DE3); co-expressed (pRSFDuet-1), in clarified lysate for the pull-down; individually expressed, purified on amylose resin for SEC–MALS; not shown: MBP, N-terminal, kept
T1 chain (looked up): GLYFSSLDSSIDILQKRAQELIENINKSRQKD
As to the kind of experiment: pull-down; amylose pull-down after co-expression in bacteria of MBP-fusion SYCE2 constructs (bait) with His-tagged TEX12 or SYCE2 constructs; lysis in 20 mM Tris pH 8.0, 500 mM KCl, 2 mM DTT; 1 h at 4°C; maltose elution; Coomassie-stained SDS–PAGE.

Results are given in words; binding and its absence hold for the method and conditions named. Binding seen in cells or lysates may run through a third protein. Where a sequence is shown, tags or fusion partners need not be part of it.

On to “α1–2 region of TEX12 (construct of supplementary figure S4) (human) (domain or fragment)”, for which the binding entry was “no binding”. As for “N-terminal region of TEX12 (construct of supplementary figure S4) (human) (domain or fragment)”, the binding entry is “no binding”.
